Literature values in PMC6662551 (Clinical and Translational Science, 2019).

Tested on: OATP1B1
Conditions: c.521T>C carriers; cited from earlier work

## CC(C)c1c(C(=O)Nc2ccccc2)c(-c2ccccc2)c(-c2ccc(F)cc2)n1CC[C@@H](O)C[C@@H](O)CC(=O)O [atorvastatin]
  increase in plasma levels in individuals with the OATP1B1‐Val174Ala variant: 1.5–3 fold
